Data taken from ChEMBL document CHEMBL3988442, “University of Dundee, Small-Polar-MMV Screening Library” (2021).

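Viability assay of Plasmodium falciparum sporozoites; the read-out is not stated. The concentration is filed as 10 mM, unlikely as a test dose, so the dose is not known. Direction is inferred from retests: higher values go with lower viability. Strong results were mostly tested again. About 34,000 compounds were tested under these conditions; 0.84% (about 280) showed 50% or more at least once.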

Values are the deposited “Percent Effect”, in %.
The controls that fix the scale are not given in the record; negative values are as filed.
The compounds are a random part of those screened.

{"compound": "O=C(O)C(F)(F)F.[H][C@@]12CCN(Cc3scnc3C)C[C@]1(C(=O)NC(C)C)CCO2", "percent effect": -2.57}
{"compound": "Cc1nc(NC(=O)C2(C)CN(C)CCO2)sc1C.Cl", "stereo": "stereo not shown", "percent effect": -2.525}
{"compound": "O=C(N1CCCC(n2cncn2)C1)C1(c2ccc(Cl)cc2)CCC1", "stereo": "stereo not shown", "percent effect": -8.805}
{"compound": "CC[C@@H]1N(Cc2nccs2)CCC[C@]12CCC(=O)N2CCOC.O=C(O)C(F)(F)F", "percent effect": -3.596}
{"compound": "CC(=O)N1CC(=O)N(c2ccsc2)CC12CCN(Cc1ccoc1)C2", "stereo": "stereo not shown", "percent effect": -0.9025}
{"compound": "Cc1ccsc1CN(C)Cc1nc2c(cnn2C)c(=O)[nH]1", "percent effect": 11.27}
{"compound": "CC(=O)C(C)CC(=O)N(Cc1cccc(C)c1)C(C)C", "stereo": "stereo not shown", "percent effect": -8.653}
{"compound": "N#Cc1ccc(CC(=O)N2CCCC(n3cccn3)C2)cc1", "stereo": "stereo not shown", "percent effect": -3.567}
{"compound": "CC[C@H]1N(Cc2ccc(OC)cc2)CCC[C@]12CCC(=O)N2C", "percent effect": -11.37}
{"compound": "CC(c1nc(C2CC2)no1)N1CCN(CCN2CCCC2=O)CC1", "stereo": "stereo not shown", "percent effect": -2.137}
{"compound": "O=C(O)C(F)(F)F.[H][C@@]12CCN(c3nncs3)C[C@]1([H])O[C@@H](C(=O)NCC1CCOCC1)C2", "percent effect": -9.386}
{"compound": "FC(F)(F)c1n[nH]c2c1CN(Cc1cn3ccccc3n1)CC2", "percent effect": -8.343}
{"compound": "CN(CCNC(=O)NCc1ccsc1)C1CCCC1", "percent effect": 7.856}
{"compound": "CC(=O)N1CCN(Cc2cccs2)CC2(CC(=O)N(C)C2)C1.O=C(O)C(F)(F)F", "stereo": "stereo not shown", "percent effect": -9.386}
{"compound": "O=C1CCCN1C1CCCN(CCn2cc(Cl)cn2)C1", "stereo": "stereo not shown", "percent effect": 0.3581}
{"compound": "COc1ccc(CN2CCC3(CC2)NC(=O)CC3c2cnn(C)c2)cc1.O=C(O)C(F)(F)F", "stereo": "stereo not shown", "percent effect": -8.759}
{"compound": "COCCC(=O)N1CCC2(CC1)CC(c1ccccc1)CN(C1CC1)C2", "stereo": "stereo not shown", "percent effect": -21.94}
{"compound": "Cc1noc(C)c1CC(=O)N1CCCN(Cc2cscn2)CC1", "percent effect": 13.01}
{"compound": "Cn1nc(C2CN(C(=O)c3cccnc3)C2)c2nccnc21", "percent effect": 9.748}
{"compound": "Cn1cnc(-c2nc(C(=O)NC3CC3)c3ccccn23)c1", "percent effect": 10.82}
{"compound": "CN(Cc1cnn(C)c1)C(=O)Cn1c(CS(C)(=O)=O)nc2ccccc21", "percent effect": -8.005}
{"compound": "NC1(CN2CCCCC2)CCCCC1", "percent effect": 1.023}
{"compound": "O=C(CCCc1cn[nH]c1)N1C[C@@H](CN2CCOCC2)[C@@H](CO)C1", "percent effect": 12.87}
{"compound": "c1ccc(COCC2CN(Cc3ccsc3)Cc3nccn3C2)nc1", "stereo": "stereo not shown", "percent effect": -14.39}
{"compound": "Cl.Cn1ccnc1CNC(=O)c1cnc(C2CCNCC2)cn1", "percent effect": 2.787}
{"compound": "CSCC(CCO)NC(=O)Nc1cc(Br)ccc1C", "stereo": "stereo not shown", "percent effect": -0.3542}
{"compound": "CC(CN1CCOCC1)NC(=O)N(C)Cc1ccc(Cl)s1", "stereo": "stereo not shown", "percent effect": -7.779}
{"compound": "Cc1csc(N2CCCN(C(=O)C(C(C)C)n3cncn3)CC2)n1", "stereo": "stereo not shown", "percent effect": 0.08354}
{"compound": "Cc1cc2c(=O)n3c(nc2s1)CCN(C(=O)c1cn(C)nc1C)CC3", "percent effect": 3.325}
{"compound": "CCn1ccnc1CN1CCCN(C(=O)c2cc(C)nn2CC)CC1", "percent effect": 6.53}
{"compound": "[H][C@]12CN(C(=O)OC)CCN1C[C@H](CO)[C@H]2c1ccccc1", "percent effect": -20.16}
{"compound": "Cc1nc(-c2c(C)noc2C)cc(C2CCN(CC(=O)N(C)C)CC2)n1", "percent effect": 0.4532}
{"compound": "CS(=O)(=O)N1CCOCC2(CCN(Cc3ccoc3)CC2)C1.O=C(O)C(F)(F)F", "percent effect": -10.75}
{"compound": "CCc1csc(C2CCCN(C(=O)c3ccco3)C2)n1", "stereo": "stereo not shown", "percent effect": 8.848}
{"compound": "Cc1nc(NC(=O)NC2CC(=O)N(C)C2)nn1C(C)C", "stereo": "stereo not shown", "percent effect": -10.41}
{"compound": "CCN(c1ccc(C(=O)N2CCCC2c2cnn(C)c2)cn1)C(C)C", "stereo": "stereo not shown", "percent effect": 6.319}
{"compound": "O=C(NCCc1ccccn1)C1=NN(c2ccccc2)C(=O)CN1", "percent effect": 4.359}
{"compound": "CCN(CC)S(=O)(=O)c1ccc(CNC(=O)N2CCC(C#N)CC2)cc1", "percent effect": 2.451}
{"compound": "Cc1cn2c(n1)CCC(NC(=O)c1cc(Br)cn1C)C2", "stereo": "stereo not shown", "percent effect": -7.598}
{"compound": "CC(C)n1ncc2cc(NC(=O)N3CCC(N4CCCC4)C3)cnc21", "stereo": "stereo not shown", "percent effect": 9.942}
{"compound": "c1cnnc(N2CCCC(NCc3nc(C4CC4)no3)C2)c1", "stereo": "stereo not shown", "percent effect": 4.144}
{"compound": "Cn1cnnc1C1CCN(C(=O)c2cc3c(s2)CCCC3)CC1", "percent effect": 8.227}
{"compound": "COC[C@@H]1CCC[C@]12CN(Cc1cccc(C)n1)CCO2.O=C(O)C(F)(F)F.O=C(O)C(F)(F)F", "percent effect": 1.974}
{"compound": "CC(C)N(C)C(=O)C1=NOC2(CCN(C(=O)c3ccc(Cl)cc3)C2)C1", "stereo": "stereo not shown", "percent effect": 0.8419}
{"compound": "O=C(c1ccc2c(c1)OCO2)N1CCN(c2cnccn2)CC1", "percent effect": -5.153}
{"compound": "O=C(O)C(F)(F)F.[H][C@@]12COC[C@]1(CNC(=O)COC)CN(c1ncc(F)cn1)C2", "percent effect": -0.8881}
{"compound": "Cc1ccc(CN2CCC3(CC2)CCN(C(=O)c2cccnc2)C3)o1.O=C(O)C(F)(F)F", "percent effect": 7.536}
{"compound": "O=C(O)C(F)(F)F.[H][C@@]12CN(Cc3csc(C)n3)CCO[C@]1([H])CN(C(=O)CC1CC1)C2", "percent effect": -7.786}
{"compound": "COc1ccnc(NC(Cc2ccccc2)C(N)=O)n1", "stereo": "stereo not shown", "percent effect": 9.123}
{"compound": "Cc1cnn(CCNCc2ccccc2F)c1", "percent effect": 1.519}
{"compound": "Cc1nc(C2CCCN(C(=O)c3c(C)nn4cccnc34)C2)no1", "stereo": "stereo not shown", "percent effect": 2.831}
{"compound": "COc1ccc(CN2CCN(C(=O)c3ccc(C)n3C)CC2)cc1", "percent effect": 14.39}
{"compound": "c1cnnc(N2CCCC2CNCc2nc(-c3ccoc3)no2)c1", "stereo": "stereo not shown", "percent effect": 13.32}
{"compound": "CC(C)C(Sc1nncn1C1CC1)C(=O)NCc1cccnc1", "stereo": "stereo not shown", "percent effect": 5.856}
{"compound": "CC(C)[C@H](CO)Nc1nccc(-c2c[nH]nc2-c2ccncc2)n1", "percent effect": -3.641}
{"compound": "CC(C)CN1CCC2(CCN(Cc3ccc(F)cc3)CC2)C1=O.O=C(O)C(F)(F)F", "percent effect": 18.83}

Repeated from the top, 4 entries:

| compound | percent effect |
|---|---|
| `O=C(O)C(F)(F)F.[H][C@@]12CCN(Cc3scnc3C)C[C@]1(C(=O)NC(C)C)CCO2` | -2.57 |
| `Cc1nc(NC(=O)C2(C)CN(C)CCO2)sc1C.Cl` (stereo not shown) | -2.525 |
| `O=C(N1CCCC(n2cncn2)C1)C1(c2ccc(Cl)cc2)CCC1` (stereo not shown) | -8.805 |
| `CC[C@@H]1N(Cc2nccs2)CCC[C@]12CCC(=O)N2CCOC.O=C(O)C(F)(F)F` | -3.596 |